Results as given in patent US20230147744A1, “METHODS TO ENRICH ENTEROENDOCRINE CELLS AND THEIR SUBTYPES IN THE CONTIGUOUS, INTESTINAL MONOLAYER SYSTEMS” (The University of North Carolina at Chapel Hill, priority 2020, published 2023).
For at least one compound, name, drawing or mass did not settle the structure.

What was measured:
[1] = tested on: EEC cells; conditions: induced with doxycycline (noninduced 0.4%); cited from earlier work
[2] = tested on: L-cells in differentiated colonic monolayers; assay: GLP-1 secretion assay (ELISA of basal medium) from L-cell enriched monolayers; format: cell-based; conditions: apical exposure 4 hours; forskolin 10 μM, bombesin 10 μM

C[C@H]1c2cccc(O)c2C(=O)C2=C(O)[C@]3(O)C(=O)C(C(N)=O)=C(O)[C@@H](N(C)C)[C@@H]3[C@@H](O)[C@@H]21 [doxycycline]
EEC fraction [1]: 40%

C=C[C@@]1(C)CC(=O)[C@]2(O)[C@@]3(C)[C@@H](O)CCC(C)(C)[C@@H]3[C@H](O)[C@H](OC(C)=O)[C@@]2(C)O1 [forskolin]
GLP-1 secretion relative to the control (DMSO) [2]: about six times higher than the control
